Source: patent publication US6495331B1, “Regulation of cytokine production in a hematopoietic cell” (National Jewish Center for Immunology and Respiratory …, priority 1996, dated 2002)
At least one structure is not confirmed: it was looked up by name or label, or the drawing left a doubt. Some of these results come from one statement about several compounds together.

Tests used:
TNF-α production = TNF-α production by OVA-stimulated sensitized MC/9 cells, ELISA; type: cell-based, mouse
PI3-kinase = conditions: has been shown; cited from earlier work

Row | SMILES | TNF-α production 3 h after stimulation (TNF-α production; 1 μg/ml inhibitor added 15 min before OVA, completely blocked, data not shown) | effect on TNF-α production (TNF-α production; 1 nM-1 μM wortmannin, 10 μg/ml OVA 3 h) | concentrations at which PI3-kinase is inhibited (PI3-kinase)
1 | C[C@@H]1C[C@@H]([C@H](O)CC2CC(=O)NC(=O)C2)C(=O)[C@@H](C)C1 [cycloheximide] | less than 30 pg per million cells | – | –
2 | COC[C@H]1OC(=O)c2coc3c2[C@@]1(C)C1=C(C3=O)[C@@H]2CCC(=O)[C@@]2(C)C[C@H]1OC(C)=O [wortmannin] | – | inhibited TNF-α production in a dose-dependent manner | below 1 μM
